Test results taken from the supplement of paper PMC10849652.
The other results are listed elsewhere or left out.

By UniProt entry, the sequences of proteins in these tests, tags left out. Where a name states a change or a piece, a line headed by the entry shows the natural chain unless it says otherwise.
UniProt Q8NFP9, whole entry, looked up: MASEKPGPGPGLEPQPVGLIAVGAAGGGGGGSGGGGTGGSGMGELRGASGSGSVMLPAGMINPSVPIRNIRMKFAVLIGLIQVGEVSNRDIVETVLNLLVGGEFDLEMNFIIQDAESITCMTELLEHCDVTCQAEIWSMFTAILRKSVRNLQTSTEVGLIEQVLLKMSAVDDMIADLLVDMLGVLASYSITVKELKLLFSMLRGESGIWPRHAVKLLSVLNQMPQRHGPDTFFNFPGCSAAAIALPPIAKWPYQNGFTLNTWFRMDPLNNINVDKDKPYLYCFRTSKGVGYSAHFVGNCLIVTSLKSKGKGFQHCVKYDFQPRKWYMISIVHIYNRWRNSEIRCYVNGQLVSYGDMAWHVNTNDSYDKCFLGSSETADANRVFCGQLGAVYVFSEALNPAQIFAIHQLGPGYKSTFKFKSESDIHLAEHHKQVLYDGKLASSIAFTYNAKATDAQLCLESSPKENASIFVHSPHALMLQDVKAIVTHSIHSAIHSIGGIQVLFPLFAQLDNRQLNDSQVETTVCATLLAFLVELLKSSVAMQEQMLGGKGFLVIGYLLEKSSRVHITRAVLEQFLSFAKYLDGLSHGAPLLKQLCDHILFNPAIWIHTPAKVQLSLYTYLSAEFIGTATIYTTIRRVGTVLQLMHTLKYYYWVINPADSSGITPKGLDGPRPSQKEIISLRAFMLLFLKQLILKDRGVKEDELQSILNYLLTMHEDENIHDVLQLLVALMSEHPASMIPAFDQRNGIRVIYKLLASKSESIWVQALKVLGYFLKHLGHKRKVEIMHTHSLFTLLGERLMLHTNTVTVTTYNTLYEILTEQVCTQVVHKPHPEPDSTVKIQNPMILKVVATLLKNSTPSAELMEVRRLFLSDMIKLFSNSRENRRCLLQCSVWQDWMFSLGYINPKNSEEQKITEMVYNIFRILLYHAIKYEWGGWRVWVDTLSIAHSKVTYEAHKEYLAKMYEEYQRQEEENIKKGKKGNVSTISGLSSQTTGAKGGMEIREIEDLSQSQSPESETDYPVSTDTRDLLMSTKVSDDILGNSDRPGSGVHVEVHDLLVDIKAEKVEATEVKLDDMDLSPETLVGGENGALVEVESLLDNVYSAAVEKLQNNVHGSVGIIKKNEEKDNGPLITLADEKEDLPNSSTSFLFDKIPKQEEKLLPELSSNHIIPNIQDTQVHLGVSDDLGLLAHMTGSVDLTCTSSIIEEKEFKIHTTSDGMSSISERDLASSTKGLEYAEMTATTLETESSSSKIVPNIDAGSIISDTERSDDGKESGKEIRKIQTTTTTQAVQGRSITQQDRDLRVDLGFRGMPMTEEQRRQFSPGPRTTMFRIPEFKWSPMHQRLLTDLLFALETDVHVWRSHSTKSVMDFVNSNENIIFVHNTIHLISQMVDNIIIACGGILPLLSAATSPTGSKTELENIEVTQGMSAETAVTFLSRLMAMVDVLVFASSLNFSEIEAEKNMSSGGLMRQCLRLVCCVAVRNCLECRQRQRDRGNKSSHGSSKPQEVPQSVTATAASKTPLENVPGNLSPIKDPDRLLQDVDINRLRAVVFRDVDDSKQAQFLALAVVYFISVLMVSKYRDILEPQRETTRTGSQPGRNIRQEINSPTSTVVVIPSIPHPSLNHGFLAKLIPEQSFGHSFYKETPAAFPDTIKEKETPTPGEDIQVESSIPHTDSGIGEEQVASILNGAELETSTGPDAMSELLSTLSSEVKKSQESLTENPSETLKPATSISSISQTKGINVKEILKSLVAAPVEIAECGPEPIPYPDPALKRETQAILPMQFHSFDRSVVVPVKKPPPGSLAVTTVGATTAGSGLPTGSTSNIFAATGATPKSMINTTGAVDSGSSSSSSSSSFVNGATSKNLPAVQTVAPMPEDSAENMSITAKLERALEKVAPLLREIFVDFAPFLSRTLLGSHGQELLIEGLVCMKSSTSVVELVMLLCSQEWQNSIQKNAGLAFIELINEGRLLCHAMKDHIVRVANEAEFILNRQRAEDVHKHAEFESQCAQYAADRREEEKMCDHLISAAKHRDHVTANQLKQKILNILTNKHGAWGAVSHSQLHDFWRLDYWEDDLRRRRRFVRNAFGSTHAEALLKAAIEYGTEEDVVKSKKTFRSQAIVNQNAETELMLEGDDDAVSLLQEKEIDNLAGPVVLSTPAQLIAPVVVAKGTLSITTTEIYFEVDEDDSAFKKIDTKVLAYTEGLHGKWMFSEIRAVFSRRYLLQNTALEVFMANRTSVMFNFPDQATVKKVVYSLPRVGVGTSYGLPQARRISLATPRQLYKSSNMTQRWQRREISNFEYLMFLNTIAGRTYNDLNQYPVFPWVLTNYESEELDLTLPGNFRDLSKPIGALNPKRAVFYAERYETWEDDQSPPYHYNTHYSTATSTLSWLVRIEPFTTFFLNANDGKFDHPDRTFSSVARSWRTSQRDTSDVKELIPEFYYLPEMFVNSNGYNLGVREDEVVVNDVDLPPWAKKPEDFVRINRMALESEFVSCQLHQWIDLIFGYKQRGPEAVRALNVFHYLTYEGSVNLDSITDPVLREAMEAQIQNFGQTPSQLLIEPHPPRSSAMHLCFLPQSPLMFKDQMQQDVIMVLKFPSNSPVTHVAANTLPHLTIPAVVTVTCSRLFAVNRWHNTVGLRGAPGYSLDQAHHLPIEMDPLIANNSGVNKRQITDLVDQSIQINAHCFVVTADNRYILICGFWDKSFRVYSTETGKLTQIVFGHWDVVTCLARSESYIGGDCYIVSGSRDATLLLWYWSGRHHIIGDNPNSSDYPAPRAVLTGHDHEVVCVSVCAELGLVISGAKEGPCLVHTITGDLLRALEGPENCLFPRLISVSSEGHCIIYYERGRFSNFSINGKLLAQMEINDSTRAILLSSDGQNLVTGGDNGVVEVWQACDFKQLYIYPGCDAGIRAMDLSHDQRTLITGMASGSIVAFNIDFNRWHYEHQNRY
UniProt P14649: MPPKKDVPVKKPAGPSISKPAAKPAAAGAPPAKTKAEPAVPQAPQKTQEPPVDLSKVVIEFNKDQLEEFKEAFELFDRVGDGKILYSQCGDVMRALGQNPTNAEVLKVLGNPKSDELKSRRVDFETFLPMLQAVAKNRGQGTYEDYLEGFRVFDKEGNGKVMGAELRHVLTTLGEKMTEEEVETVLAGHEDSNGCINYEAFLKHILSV
UniProt Q7Z406, whole entry, looked up: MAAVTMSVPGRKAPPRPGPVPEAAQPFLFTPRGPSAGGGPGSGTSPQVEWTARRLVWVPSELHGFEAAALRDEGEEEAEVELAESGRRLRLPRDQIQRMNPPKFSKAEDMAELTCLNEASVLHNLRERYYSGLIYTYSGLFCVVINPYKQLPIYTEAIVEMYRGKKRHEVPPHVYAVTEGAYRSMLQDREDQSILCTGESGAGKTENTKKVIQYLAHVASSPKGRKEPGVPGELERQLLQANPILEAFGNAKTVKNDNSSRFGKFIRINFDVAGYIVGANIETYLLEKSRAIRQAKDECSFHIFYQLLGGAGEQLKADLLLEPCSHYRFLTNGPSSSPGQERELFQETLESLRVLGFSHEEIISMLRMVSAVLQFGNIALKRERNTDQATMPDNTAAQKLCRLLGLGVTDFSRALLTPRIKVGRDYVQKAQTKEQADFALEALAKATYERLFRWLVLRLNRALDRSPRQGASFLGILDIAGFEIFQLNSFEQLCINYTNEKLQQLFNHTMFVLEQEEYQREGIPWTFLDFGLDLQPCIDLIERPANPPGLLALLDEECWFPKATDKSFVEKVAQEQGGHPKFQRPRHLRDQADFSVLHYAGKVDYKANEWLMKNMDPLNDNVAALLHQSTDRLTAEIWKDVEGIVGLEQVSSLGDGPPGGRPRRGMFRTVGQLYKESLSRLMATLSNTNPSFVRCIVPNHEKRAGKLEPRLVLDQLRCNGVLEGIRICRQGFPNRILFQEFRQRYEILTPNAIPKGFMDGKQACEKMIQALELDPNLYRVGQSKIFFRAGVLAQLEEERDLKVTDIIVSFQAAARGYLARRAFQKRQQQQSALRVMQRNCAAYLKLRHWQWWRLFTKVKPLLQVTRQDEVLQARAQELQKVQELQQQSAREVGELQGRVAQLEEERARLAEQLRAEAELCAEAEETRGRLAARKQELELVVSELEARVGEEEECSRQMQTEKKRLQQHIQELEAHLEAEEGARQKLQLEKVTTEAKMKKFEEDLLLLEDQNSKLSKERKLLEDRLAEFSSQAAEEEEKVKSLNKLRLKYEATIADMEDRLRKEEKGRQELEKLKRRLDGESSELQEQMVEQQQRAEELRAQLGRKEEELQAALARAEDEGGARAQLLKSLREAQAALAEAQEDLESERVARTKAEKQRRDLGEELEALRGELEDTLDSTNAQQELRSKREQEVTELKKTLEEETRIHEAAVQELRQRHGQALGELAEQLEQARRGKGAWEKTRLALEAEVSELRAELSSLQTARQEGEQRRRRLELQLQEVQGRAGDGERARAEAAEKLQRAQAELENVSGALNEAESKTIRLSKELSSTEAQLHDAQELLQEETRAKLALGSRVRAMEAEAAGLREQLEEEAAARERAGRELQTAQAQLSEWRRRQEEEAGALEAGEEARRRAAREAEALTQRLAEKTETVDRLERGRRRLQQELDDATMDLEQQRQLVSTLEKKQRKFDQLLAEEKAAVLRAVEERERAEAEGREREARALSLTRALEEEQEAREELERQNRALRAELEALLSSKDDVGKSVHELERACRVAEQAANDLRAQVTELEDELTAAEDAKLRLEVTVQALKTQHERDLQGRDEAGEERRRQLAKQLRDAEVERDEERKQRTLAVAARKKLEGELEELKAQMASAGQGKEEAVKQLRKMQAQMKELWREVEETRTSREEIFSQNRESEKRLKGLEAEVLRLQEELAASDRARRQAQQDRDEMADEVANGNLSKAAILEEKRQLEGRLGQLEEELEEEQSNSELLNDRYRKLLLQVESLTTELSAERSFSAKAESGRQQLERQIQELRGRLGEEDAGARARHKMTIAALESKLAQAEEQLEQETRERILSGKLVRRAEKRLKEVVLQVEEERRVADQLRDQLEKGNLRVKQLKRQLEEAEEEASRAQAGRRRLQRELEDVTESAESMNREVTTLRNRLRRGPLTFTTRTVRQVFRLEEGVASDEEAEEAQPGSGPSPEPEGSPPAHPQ
UniProt Q8TBE9: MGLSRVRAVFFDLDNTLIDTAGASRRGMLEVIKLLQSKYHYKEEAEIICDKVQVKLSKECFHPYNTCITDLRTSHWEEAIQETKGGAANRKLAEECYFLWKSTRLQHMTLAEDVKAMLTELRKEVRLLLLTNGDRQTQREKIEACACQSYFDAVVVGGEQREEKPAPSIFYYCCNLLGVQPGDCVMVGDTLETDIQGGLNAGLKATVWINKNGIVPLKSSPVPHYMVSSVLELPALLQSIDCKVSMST
UniProt Q13564: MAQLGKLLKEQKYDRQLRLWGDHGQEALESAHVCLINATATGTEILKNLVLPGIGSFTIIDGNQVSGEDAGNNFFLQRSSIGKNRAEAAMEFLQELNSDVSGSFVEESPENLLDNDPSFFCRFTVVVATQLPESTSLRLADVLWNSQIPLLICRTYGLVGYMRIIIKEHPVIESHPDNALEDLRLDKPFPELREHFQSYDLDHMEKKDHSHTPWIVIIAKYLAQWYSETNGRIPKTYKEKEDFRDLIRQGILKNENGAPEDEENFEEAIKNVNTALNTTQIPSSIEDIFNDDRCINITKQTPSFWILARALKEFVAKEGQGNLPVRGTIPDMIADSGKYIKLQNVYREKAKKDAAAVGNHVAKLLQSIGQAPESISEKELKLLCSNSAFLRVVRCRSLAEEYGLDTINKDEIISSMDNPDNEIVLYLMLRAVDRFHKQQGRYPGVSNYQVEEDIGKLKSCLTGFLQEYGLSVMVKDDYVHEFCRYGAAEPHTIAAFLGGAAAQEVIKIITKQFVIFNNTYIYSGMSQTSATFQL
UniProt Q9BQ15: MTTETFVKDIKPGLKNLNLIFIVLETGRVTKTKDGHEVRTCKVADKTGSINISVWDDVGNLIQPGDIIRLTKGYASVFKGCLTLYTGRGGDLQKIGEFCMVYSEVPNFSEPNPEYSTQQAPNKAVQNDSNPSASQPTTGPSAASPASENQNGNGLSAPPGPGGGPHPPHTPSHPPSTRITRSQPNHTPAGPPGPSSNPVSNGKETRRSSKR
UniProt Q9GZZ1: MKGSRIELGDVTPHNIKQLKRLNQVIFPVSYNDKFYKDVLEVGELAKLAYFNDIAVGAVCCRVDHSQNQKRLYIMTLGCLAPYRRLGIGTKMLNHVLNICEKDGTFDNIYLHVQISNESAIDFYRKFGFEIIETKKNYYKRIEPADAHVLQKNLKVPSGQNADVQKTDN

How the values were obtained:
Assay in all cases: log2 fold change, soluble protein after heating vs DMSO (PISA); higher = thermal stabilisation; K562 lysate, 10 uM; active = over 0.2 and 3.5 SD of the protein, either way, in both replicates (recomputed)
[1] = compound: CS(=O)(=O)CCNCc1ccc(-c2ccc3ncnc(Nc4ccc(OCc5cccc(F)c5)c(Cl)c4)c3c2)o1 [lapatinib]
How it was run: (§1)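 To prepare the extract, K562 pellets were dounce-homogenised in PBS pH 7.4 with 1 mM MgCl2, giving crude material at 1 mg/mL protein. This was treated with 10 μM compound for 30 min, then heated in aliquots for 3 min over 48°C-58°C before pooling and addition of NP-40 to 0.5% at 4°C. Centrifugation at 21,000xg for 90 min left soluble protein in the supernatant, which TMTpro 16plex LC-MS/MS quantified with equalised channel sums. Results are log-two fold changes in thermal stability compared with solvent controls, from duplicates.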

[2] = compound: CS(=O)(=O)N1CCN(Cc2cc3nc(-c4cccc5[nH]ncc45)nc(N4CCOCC4)c3s2)CC1 [pictilisib]
How it was run: as §1

[3] = compound: C[C@@H](Oc1cc(-c2cnn(C3CCNCC3)c2)cnc1N)c1c(Cl)ccc(F)c1Cl [crizotinib]
How it was run: as §1

[4] = compound: C[C@H](C1=CC=C(C=C1)C(=O)NC2=C3C=CNC3=NC=C2)N
How it was run: as §1

[5] = compound: C[C@H](Nc1ncnc2nc[nH]c12)c1cc2cccc(Cl)c2c(=O)n1-c1ccccc1 [duvelisib]
How it was run: as §1

[6] = compound: Cc1cc(Nc2cc(CN3CCOCC3)c3nc(C)c(Cc4ccc(Cl)cc4F)n3n2)n[nH]1 [gandotinib]
How it was run: as §1

[7] = compound: Cc1cc(Nc2cc(N3CCN(C)CC3)nc(Sc3ccc(NC(=O)C4CC4)cc3)n2)n[nH]1 [tozasertib]
How it was run: as §1

[8] = compound: Cc1ccc(-n2nc(C(C)(C)C)cc2NC(=O)Nc2ccc(OCCN3CCOCC3)c3ccccc23)cc1 [doramapimod]
How it was run: as §1

[9] = compound: Cc1ccc(NC(=O)c2ccc(CN3CC[C@H](N(C)C)C3)c(C(F)(F)F)c2)cc1Nc1nccc(-c2cncnc2)n1 [bafetinib]
How it was run: as §1

[10] = compound: Cc1cccc(CC(=O)N2CCc3c2ccc(-c2cn(C)c4ncnc(N)c24)c3F)n1
How it was run: as §1

[11] = compound: Cc1cn(-c2cc(NC(=O)c3ccc(C)c(Nc4nccc(-c5cccnc5)n4)c3)cc(C(F)(F)F)c2)cn1 [nilotinib]
How it was run: as §1

[12] = compound: Cc1nc(Nc2n[nH]c3c2CN(C(=O)N[C@H](CN(C)C)c2ccccc2)C3(C)C)c2sccc2n1
How it was run: as §1

[13] = compound: Cc1nc(Nc2ncc(C(=O)Nc3c(C)cccc3Cl)s2)cc(N2CCN(CCO)CC2)n1 [dasatinib]
How it was run: as §1

[14] = compound: Cc1ncc(-c2ccnc(Nc3ccc(S(C)(=O)=O)cc3)n2)n1C(C)C
How it was run: as §1

[15] = compound: Cn1cc(-c2ccc3c(c2)CCN3C(=O)Cc2cccc(C(F)(F)F)c2)c2c(N)ncnc21
How it was run: as §1

[16] = compound: Cn1cc(CNCC2CCN(c3ncc(C(=O)NO)cn3)CC2)c2ccccc21 [quisinostat]
How it was run: as §1

[17] = compound: Cn1cncc1[C@@](N)(c1ccc(Cl)cc1)c1ccc2c(c1)c(-c1cccc(Cl)c1)cc(=O)n2C [tipifarnib]
How it was run: as §1

[18] = compound: NC(=O)Nc1cc(-c2cccc(F)c2)sc1C(=O)N[C@H]1CCCNC1
How it was run: as §1

[19] = compound: NC(=O)c1cnc(N[C@@H]2CCCC[C@@H]2N)nc1Nc1cccc(-n2nccn2)c1
How it was run: as §1

[20] = compound: NC1(c2ccc(-c3nc4ccn5c(=O)[nH]nc5c4cc3-c3ccccc3)cc2)CCC1
How it was run: as §1

Measured: log2 fold change

NBEA (UniProt Q8NFP9)
inactive: [1] 0.015 | [2] -0.032 | [3] -0.058 | [4] -0.103 | [5] 0.001 | [6] 0.059 | [7] -0.021 | [8] 0.137 | [9] -0.026 | [10] 0.121 | [11] -0.018 | [12] -0.007 | [13] -0.06 | [14] 0.02 | [15] -0.015 | [16] -0.021 | [17] 0.045 | [18] 0.025 | [19] 0.015 | [20] 0.051

NCSTN (UniProt Q92542)
inactive: [1] 0.002 | [2] -0.019 | [3] -0.041 | [4] -0.216 | [5] -0.014 | [6] 0.099 | [7] -0.025 | [8] 0.021 | [9] -0.082 | [10] 0.144 | [11] -0.061 | [12] -0.02 | [13] 0.03 | [14] 0.029 | [15] 0.008 | [16] -0.023 | [17] 0.03 | [18] 0.015 | [19] 0.047 | [20] 0.003

MYL6B (UniProt P14649)
inactive: [1] -0.003 | [2] -0.04 | [3] 0.051 | [4] 0.033 | [5] 0.021 | [6] 0.02 | [7] 0.048 | [8] -0.029 | [9] 0.008 | [10] -0.04 | [11] 0.001 | [12] -0.029 | [13] 0.017 | [14] -0.003 | [15] -0.014 | [16] 0.026 | [17] 0.017 | [18] -0.026 | [19] -0.012 | [20] 0.001

2 records drawn at random from the list so far, as already listed:
MYL6B (UniProt P14649)
inactive: [1] -0.003 | [2] -0.04 | [3] 0.051 | [4] 0.033 | [5] 0.021 | [6] 0.02 | [7] 0.048 | [8] -0.029 | [9] 0.008 | [10] -0.04 | [11] 0.001 | [12] -0.029 | [13] 0.017 | [14] -0.003 | [15] -0.014 | [16] 0.026 | [17] 0.017 | [18] -0.026 | [19] -0.012 | [20] 0.001

NBEA (UniProt Q8NFP9)
inactive: [1] 0.015 | [2] -0.032 | [3] -0.058 | [4] -0.103 | [5] 0.001 | [6] 0.059 | [7] -0.021 | [8] 0.137 | [9] -0.026 | [10] 0.121 | [11] -0.018 | [12] -0.007 | [13] -0.06 | [14] 0.02 | [15] -0.015 | [16] -0.021 | [17] 0.045 | [18] 0.025 | [19] 0.015 | [20] 0.051

Remaining list, next part.

MVD (UniProt P53602)
inactive: [1] -0.009 | [2] 0.011 | [3] 0.004 | [4] 0.078 | [5] 0.01 | [6] -0.027 | [7] -0.007 | [8] -0.039 | [9] -0.032 | [10] -0.038 | [11] 0.014 | [12] -0.004 | [13] -0.014 | [14] 0.033 | [15] -0.004 | [16] 0.058 | [17] -0.02 | [18] 0.002 | [19] 0.021 | [20] 0.003

NAPRT (UniProt Q6XQN6)
inactive: [1] 0.008 | [2] 0.05 | [3] 0.046 | [4] 0.03 | [5] 0.019 | [6] -0.06 | [7] 0.039 | [8] 0.034 | [9] 0.034 | [10] -0.074 | [11] -0.004 | [12] 0.018 | [13] 0.009 | [14] -0.021 | [15] 0.008 | [16] 0.12 | [17] 0.017 | [18] -0.064 | [19] 0.014 | [20] 0.041

MYD88 isoform 6 (UniProt Q99836)
inactive: [1] 0.014 | [2] -0.006 | [3] -0.007 | [4] -0.032 | [5] 0.03 | [6] -0.009 | [7] 0.068 | [8] 0.019 | [9] -0.018 | [10] 0 | [11] -0.003 | [12] 0.001 | [13] -0.021 | [14] -0.027 | [15] 0.024 | [16] -0.033 | [17] 0.004 | [18] 0 | [19] 0.03 | [20] 0.054

MYH14 isoform 2 (UniProt Q7Z406)
inactive: [1] -0.018 | [2] 0.018 | [3] -0.022 | [4] -0.018 | [5] 0.009 | [6] -0.003 | [7] -0.041 | [8] 0.025 | [9] 0.033 | [10] 0.04 | [11] -0.038 | [12] 0.041 | [13] 0 | [14] 0.003 | [15] -0.027 | [16] -0.042 | [17] -0.026 | [18] -0.037 | [19] -0.016 | [20] -0.008

NANP (UniProt Q8TBE9)
inactive: [1] -0.037 | [2] -0.09 | [3] 0.008 | [4] -0.124 | [5] -0.006 | [6] 0.065 | [7] 0.037 | [8] 0.004 | [9] -0.045 | [10] 0.101 | [11] 0.008 | [12] -0.043 | [13] -0.064 | [14] -0.024 | [15] -0.029 | [16] -0.007 | [17] 0.061 | [18] 0.006 | [19] -0.067 | [20] 0.117

NCBP3 (UniProt Q53F19)
inactive: [1] 0.002 | [2] -0.107 | [3] -0.063 | [4] -0.042 | [5] -0.047 | [6] -0.092 | [7] -0.031 | [8] 0.122 | [9] -0.124 | [10] 0.082 | [11] 0.109 | [12] -0.019 | [13] 0.057 | [14] 0.154 | [15] 0 | [16] -0.006 | [17] -0.068 | [18] 0.019 | [19] 0.043 | [20] -0.052

NAE1 (UniProt Q13564)
inactive: [1] -0.013 | [2] -0.023 | [3] -0.007 | [4] -0.016 | [5] -0.002 | [6] -0.025 | [7] -0.021 | [8] 0.001 | [9] 0.046 | [10] -0.011 | [11] 0.025 | [12] 0.011 | [13] 0.003 | [14] -0.014 | [15] 0.001 | [16] -0.021 | [17] -0.002 | [18] 0.019 | [19] 0.012 | [20] -0.03

NCOA3 (UniProt Q9Y6Q9)
inactive: [1] 0.044 | [2] -0.022 | [3] 0.027 | [4] 0.017 | [5] -0.008 | [6] 0.007 | [7] 0.098 | [8] 0.008 | [9] -0.015 | [10] -0.011 | [11] 0.006 | [12] -0.026 | [13] -0.078 | [14] 0.063 | [15] 0.002 | [16] -0.027 | [17] -0.038 | [18] 0.053 | [19] -0.067 | [20] 0.038

MYSM1 (UniProt Q5VVJ2)
inactive: [1] 0.078 | [2] -0.048 | [3] -0.011 | [4] -0.056 | [5] 0.014 | [6] 0.062 | [7] -0.059 | [8] 0.04 | [9] 0 | [10] 0.054 | [11] -0.033 | [12] 0.075 | [13] -0.008 | [14] -0.018 | [15] -0.02 | [16] -0.061 | [17] 0.123 | [18] 0.008 | [19] 0 | [20] 0.007

NCBP1 (UniProt Q09161)
inactive: [1] -0.009 | [2] 0 | [3] -0.048 | [4] -0.055 | [5] 0 | [6] -0.035 | [7] -0.008 | [8] -0.011 | [9] -0.038 | [10] 0.068 | [11] -0.013 | [12] 0.017 | [13] -0.002 | [14] -0.005 | [15] 0 | [16] -0.044 | [17] 0.011 | [18] 0.023 | [19] 0.007 | [20] -0.032

NAA15 (UniProt Q9BXJ9)
inactive: [1] -0.005 | [2] 0.003 | [3] 0.019 | [4] 0.04 | [5] -0.006 | [6] -0.028 | [7] 0.014 | [8] -0.011 | [9] 0.029 | [10] -0.009 | [11] -0.007 | [12] 0.006 | [13] -0.023 | [14] -0.004 | [15] 0.009 | [16] 0.023 | [17] 0.013 | [18] -0.001 | [19] 0.008 | [20] -0.006

NABP2 (UniProt Q9BQ15)
inactive: [1] -0.005 | [2] 0.17 | [3] -0.032 | [4] 0.026 | [5] 0.013 | [6] 0.027 | [7] 0.053 | [8] -0.076 | [9] -0.131 | [10] -0.03 | [11] -0.033 | [12] -0.022 | [13] 0.024 | [14] -0.029 | [15] 0.138 | [16] -0.112 | [17] 0.01 | [18] 0.071 | [19] 0.01 | [20] -0.046

NAA50 (UniProt Q9GZZ1)
inactive: [1] -0.013 | [2] -0.004 | [3] -0.038 | [4] -0.018 | [5] 0.011 | [6] -0.007 | [7] -0.028 | [8] 0.013 | [9] 0.042 | [10] -0.005 | [11] 0.006 | [12] -0.024 | [13] -0.006 | [14] 0.003 | [15] 0.02 | [16] -0.02 | [17] 0.043 | [18] 0.018 | [19] 0.008 | [20] -0.021
